In patent EP2018861A1, “5HT6-Ligands such as sulfonamide derivatives in drug-induced weight-gain” (Laboratorios del Dr. Esteve S.A., priority 2007, dated 2009):
For at least one compound, name, drawing or mass did not settle the structure.

Test: Feeding study: olanzapine-induced weight-gain and hyperphagia in rats on a high-fat diet
Format: in vivo, female Sprague-Dawley rats
Conditions: olanzapine 3 mg/kg po
Description: The experiment was performed on 40 female Sprague-Dawley rats (originally in the weight range 250-300 g). The animal room was maintained at a temperature of 21±4°C and 55±20% humidity and on a reversed phase light-dark cycle (lights off for 8 h from 09.30-17.30 h) during which time the room was illuminated by red light. Animals had free access to powdered high fat diet (VRF1 plus 20% lard). The diet was contained in a glass feeding jar with an aluminium lid with a 3-4 cm hole cut in it to allow access to the food. Animals were housed singly in polypropylene cages with wire grid floors to enable the food intake of each rat to be recorded. Polypropylene trays containing cage pads were placed beneath each cage to detect any food spillage. Animals were accustomed to these new conditions (individual housing and the wire-grid floor cages) for at least 14 days before the start of the baseline readings.
Approximately a week before the start of the study, animals were weighed (to the nearest 0.1 g using an electronic top-pan balance) and allocated into 4 weight-matched treatment groups, each containing 10 animals. […]
Food intake and body weight were measured once daily. […]
Statistical comparisons between the body weights of the different treatment groups were made by analysis of covariance followed by multiple t tests (two-tailed) to compare each treatment group with the vehicle-treated controls. For the body weight data (body weights recorded each day), the weights of the animals on Day 1 (ie immediately before the first drug treatment) were used as the covariate. Thus, means were adjusted for differences in body weight between the groups on Day 1 and standard errors of the mean (SEM) were calculated from the residuals of the statistical model. […]
Statistical comparisons between the food intakes of the different treatment groups were made by analysis of covariance followed by multiple t tests (two-tailed) to compare each treatment group with the vehicle-treated controls. […] Standard errors of the mean (SEM) were calculated from the residuals of the statistical model. […]

Structure (SMILES): Cc1cc2c(s1)Nc1ccccc1N=C2N1CCN(C)CC1 [Olanzapine]
- body weight compared to the vehicle + vehicle-treated control (14 days, COMPOUND 1 30 mg/kg po bid, high-fat diet (Figure 1)): marked and sustained increase in the body weights
- daily food intake compared to the vehicle-treated controls (14 days, COMPOUND 1 30 mg/kg po bid, high-fat diet (Figure 2)): increase in food intake
- cumulative intake of food over the first week compared to the vehicle controls (Week 1, COMPOUND 1 30 mg/kg po bid (Figure 3)): statistically greater (p < 0.05)
